Laboratory results from the supplement of paper PMC10849652.
The other results are listed elsewhere or left out.

Sequences of proteins named here, by UniProt entry; tags and fusion partners are left off. A change or cut given only in a name is not applied to a line headed by its entry.
UniProt Q99956: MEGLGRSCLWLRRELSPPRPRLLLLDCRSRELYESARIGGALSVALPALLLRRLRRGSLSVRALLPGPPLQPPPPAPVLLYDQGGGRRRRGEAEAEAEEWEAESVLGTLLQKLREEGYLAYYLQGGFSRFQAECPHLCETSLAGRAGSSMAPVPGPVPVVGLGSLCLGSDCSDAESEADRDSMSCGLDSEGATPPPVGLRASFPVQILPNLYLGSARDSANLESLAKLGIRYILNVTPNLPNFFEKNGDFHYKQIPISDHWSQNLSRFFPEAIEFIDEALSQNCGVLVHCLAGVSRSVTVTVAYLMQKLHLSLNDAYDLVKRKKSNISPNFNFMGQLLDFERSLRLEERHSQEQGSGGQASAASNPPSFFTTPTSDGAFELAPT
UniProt Q9NYP3: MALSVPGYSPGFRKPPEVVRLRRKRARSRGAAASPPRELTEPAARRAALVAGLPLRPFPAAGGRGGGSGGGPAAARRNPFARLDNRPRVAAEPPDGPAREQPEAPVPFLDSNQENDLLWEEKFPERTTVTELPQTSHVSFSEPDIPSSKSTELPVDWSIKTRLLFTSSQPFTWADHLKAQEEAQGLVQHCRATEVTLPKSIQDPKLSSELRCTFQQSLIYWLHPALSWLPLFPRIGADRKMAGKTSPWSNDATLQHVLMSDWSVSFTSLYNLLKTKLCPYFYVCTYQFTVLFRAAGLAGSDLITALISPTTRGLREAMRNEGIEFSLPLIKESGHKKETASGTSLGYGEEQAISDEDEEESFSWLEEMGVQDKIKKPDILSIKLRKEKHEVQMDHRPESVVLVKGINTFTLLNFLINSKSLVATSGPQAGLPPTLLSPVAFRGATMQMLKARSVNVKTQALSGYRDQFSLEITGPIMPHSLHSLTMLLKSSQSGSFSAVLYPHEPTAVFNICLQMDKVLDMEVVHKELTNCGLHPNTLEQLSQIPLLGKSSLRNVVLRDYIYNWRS
UniProt Q9H1X3: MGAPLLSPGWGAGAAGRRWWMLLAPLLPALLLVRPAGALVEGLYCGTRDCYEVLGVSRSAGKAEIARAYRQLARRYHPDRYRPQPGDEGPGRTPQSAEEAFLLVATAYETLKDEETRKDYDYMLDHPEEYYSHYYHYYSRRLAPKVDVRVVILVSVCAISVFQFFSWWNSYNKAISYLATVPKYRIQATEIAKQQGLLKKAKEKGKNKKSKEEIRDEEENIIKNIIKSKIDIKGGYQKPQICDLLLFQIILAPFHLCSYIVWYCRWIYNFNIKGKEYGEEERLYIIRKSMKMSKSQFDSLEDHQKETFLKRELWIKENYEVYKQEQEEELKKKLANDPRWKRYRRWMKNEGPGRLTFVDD
UniProt Q9UBS3: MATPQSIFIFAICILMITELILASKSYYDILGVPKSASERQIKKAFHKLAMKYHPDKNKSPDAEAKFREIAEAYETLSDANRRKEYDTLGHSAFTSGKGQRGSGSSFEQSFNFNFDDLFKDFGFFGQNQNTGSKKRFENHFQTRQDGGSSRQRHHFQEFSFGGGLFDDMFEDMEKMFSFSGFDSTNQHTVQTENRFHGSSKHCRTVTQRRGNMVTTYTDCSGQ
UniProt Q66K89: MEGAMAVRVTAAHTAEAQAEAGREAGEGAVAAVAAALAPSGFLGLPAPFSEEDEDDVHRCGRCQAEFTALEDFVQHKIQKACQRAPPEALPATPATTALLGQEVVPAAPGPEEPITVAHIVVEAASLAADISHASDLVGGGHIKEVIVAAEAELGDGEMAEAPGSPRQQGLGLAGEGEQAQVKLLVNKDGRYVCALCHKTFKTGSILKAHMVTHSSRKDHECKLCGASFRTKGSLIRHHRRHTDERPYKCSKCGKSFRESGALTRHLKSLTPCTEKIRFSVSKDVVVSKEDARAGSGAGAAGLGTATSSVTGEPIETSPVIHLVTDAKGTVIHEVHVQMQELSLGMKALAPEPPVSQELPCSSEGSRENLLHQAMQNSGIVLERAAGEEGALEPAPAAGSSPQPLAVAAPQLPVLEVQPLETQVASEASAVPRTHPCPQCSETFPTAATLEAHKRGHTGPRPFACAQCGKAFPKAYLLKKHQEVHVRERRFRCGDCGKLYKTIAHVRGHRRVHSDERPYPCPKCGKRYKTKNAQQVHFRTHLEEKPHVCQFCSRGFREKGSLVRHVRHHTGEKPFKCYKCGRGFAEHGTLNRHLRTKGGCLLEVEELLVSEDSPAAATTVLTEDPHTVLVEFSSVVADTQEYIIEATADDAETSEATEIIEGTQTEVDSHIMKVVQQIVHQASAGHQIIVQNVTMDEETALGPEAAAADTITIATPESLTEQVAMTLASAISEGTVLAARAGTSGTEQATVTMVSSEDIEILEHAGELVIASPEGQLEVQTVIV
UniProt O14576, whole entry, looked up: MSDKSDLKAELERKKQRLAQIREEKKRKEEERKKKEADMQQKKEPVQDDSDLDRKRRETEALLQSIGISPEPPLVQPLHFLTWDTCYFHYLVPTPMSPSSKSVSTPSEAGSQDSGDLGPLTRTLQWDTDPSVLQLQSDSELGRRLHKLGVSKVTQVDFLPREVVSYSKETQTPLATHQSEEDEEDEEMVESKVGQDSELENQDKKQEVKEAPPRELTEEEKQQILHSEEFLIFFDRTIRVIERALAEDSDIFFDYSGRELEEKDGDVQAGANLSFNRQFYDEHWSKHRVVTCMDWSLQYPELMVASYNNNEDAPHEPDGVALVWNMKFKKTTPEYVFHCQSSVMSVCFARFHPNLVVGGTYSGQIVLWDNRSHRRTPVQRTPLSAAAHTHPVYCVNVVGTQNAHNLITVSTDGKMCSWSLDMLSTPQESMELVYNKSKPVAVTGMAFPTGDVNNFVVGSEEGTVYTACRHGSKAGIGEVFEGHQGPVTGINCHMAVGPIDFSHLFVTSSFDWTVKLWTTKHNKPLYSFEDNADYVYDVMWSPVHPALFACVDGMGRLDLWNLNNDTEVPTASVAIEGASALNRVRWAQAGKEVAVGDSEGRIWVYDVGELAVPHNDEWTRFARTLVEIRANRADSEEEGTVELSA
UniProt Q9NRR4: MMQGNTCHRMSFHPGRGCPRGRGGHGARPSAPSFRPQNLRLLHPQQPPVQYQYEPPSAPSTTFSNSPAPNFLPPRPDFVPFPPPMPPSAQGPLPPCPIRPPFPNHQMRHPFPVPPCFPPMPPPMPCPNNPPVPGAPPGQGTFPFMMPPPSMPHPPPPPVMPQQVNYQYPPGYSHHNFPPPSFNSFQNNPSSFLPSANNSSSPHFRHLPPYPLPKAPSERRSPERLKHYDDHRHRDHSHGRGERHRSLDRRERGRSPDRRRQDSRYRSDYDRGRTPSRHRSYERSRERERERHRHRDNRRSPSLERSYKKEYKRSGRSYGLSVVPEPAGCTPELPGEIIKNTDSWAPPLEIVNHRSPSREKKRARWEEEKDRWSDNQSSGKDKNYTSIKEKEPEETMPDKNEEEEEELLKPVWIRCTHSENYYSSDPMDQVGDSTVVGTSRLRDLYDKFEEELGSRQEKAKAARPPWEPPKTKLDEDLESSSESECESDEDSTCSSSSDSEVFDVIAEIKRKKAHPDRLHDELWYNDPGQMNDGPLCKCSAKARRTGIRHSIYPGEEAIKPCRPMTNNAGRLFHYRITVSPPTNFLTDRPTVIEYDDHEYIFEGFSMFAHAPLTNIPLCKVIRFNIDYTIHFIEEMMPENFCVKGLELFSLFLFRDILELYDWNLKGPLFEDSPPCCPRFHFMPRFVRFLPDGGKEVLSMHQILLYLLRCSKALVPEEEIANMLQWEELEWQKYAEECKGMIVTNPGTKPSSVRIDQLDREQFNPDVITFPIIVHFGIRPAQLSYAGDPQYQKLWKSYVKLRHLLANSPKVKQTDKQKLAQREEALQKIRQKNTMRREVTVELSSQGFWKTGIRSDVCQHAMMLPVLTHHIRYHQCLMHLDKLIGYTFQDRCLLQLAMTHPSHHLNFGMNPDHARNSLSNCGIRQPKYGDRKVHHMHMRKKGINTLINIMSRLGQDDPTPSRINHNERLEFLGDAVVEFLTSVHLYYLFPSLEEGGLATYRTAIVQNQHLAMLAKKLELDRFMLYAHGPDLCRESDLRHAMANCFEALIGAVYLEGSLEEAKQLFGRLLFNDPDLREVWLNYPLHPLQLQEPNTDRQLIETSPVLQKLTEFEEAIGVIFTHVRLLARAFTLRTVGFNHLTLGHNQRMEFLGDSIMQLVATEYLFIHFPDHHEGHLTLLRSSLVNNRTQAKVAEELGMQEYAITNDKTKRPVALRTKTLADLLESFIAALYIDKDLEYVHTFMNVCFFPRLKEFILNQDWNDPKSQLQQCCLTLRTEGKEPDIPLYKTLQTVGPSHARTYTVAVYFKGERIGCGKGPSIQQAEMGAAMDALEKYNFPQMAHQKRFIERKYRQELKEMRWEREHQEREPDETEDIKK
UniProt Q4LDG9: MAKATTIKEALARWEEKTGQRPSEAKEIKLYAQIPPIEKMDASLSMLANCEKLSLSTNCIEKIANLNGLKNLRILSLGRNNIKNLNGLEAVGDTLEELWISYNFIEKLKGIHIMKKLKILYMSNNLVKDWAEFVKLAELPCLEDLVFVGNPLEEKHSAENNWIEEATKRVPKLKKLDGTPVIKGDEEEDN
UniProt Q6UX65: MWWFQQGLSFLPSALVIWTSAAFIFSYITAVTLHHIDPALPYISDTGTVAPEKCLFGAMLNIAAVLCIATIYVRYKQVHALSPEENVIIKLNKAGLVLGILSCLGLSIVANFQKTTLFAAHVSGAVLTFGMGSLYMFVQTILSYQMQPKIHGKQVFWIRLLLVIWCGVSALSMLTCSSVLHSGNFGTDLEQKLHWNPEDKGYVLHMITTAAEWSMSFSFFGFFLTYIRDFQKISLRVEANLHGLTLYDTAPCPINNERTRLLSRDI
UniProt O14641: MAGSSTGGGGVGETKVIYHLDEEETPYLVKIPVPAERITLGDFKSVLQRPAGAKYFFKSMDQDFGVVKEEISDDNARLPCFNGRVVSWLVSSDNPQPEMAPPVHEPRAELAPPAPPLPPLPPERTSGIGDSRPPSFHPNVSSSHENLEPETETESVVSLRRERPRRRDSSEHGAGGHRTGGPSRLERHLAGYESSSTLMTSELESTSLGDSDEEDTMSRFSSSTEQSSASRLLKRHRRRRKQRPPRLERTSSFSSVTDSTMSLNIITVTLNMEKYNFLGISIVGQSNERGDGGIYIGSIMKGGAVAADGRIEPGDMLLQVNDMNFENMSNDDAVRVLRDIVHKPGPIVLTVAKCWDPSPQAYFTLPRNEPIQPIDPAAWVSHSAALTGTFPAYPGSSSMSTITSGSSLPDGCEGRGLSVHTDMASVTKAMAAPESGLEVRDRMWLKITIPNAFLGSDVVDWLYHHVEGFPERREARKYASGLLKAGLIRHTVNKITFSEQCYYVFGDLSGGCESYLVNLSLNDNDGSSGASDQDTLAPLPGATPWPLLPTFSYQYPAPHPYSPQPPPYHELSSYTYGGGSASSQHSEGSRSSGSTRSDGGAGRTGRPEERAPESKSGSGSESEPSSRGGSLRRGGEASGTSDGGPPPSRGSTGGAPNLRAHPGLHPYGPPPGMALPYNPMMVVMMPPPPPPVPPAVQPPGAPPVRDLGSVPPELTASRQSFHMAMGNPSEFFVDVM
UniProt Q8TCX1: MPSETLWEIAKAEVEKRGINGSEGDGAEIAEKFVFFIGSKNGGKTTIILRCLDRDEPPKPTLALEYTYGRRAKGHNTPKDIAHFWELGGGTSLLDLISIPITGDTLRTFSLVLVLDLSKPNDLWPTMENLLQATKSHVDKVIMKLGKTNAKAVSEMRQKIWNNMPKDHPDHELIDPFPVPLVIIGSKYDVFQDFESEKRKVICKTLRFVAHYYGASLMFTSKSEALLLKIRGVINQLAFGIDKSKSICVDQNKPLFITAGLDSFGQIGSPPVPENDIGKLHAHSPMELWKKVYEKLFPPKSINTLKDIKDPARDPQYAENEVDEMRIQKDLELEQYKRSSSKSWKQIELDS

Key:
Test in all cases: log2 fold change, soluble protein after heating vs DMSO (PISA); higher = thermal stabilisation; K562 cells, 10 uM, 30 min; active = over 0.2 and 3.5 SD of the protein, either way, in both replicates (recomputed)
erlotinib = compound: C#Cc1cccc(Nc2ncnc3cc(OCCOC)c(OCCOC)cc23)c1 [erlotinib]
Summary of the method: (§1)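 For each measurement, 10 μM compound was applied for 30 min to K562 cells at 2×10^6 cells/mL. Aliquots were heated for 3 min across 48°C-58°C, pooled, and extracted in PBS with 0.5% NP-40 at 4°C; the supernatant after 21,000xg for 90 min was soluble protein. This was quantified by TMTpro 16plex LC-MS/MS with channel sums equalised, and thermal stability was reported relative to control samples from duplicates, on a log2 fold-change scale.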

[1] = compound: C1=CC(=C(C=C1Cl)C2=NC3=NC=CN=C3C(=N2)NC4=CC=NC=C4)F
Summary of the method: as §1

[2] = compound: C1=CC(=CC=C1C2=NC3=C(N2)C=C(C=C3)C(=O)N)OC4=CC=C(C=C4)Cl
Summary of the method: as §1

[3] = compound: C1=CC=C(C=C1)C2=NC(=C(N2)C3=CC=NC=C3)C4=CC(=C(C=C4)Cl)O
Summary of the method: as §1

[4] = compound: C/C(=N\NC(=O)C1=CC(=CC=C1)S(=O)(=O)N2CCOCC2)/C3=C(C=CC(=C3)Cl)O
Summary of the method: as §1

[5] = compound: C1=CC2=C(C=CC(=C2)/C=C\3/C(=O)NC(=NCC4=CC=CS4)S3)N=C1
Summary of the method: as §1

[6] = compound: C1=CC=C2C(=C1)C3=NNC4=CC=CC(=C43)C2=O
Summary of the method: as §1

[7] = compound: C1CCN(C1)C(=O)NC2=CC=CC(=C2)NC3=NC=C(C(=N3)NCCC4=CN=CN4)Br
Summary of the method: as §1

[8] = compound: C1CN(CCC1(CC2=CC=C(C=C2)Cl)N)C3=NC=NC4=C3C=CN4
Summary of the method: as §1

[9] = compound: C1=CC2=NC=CN=C2C=C1/C=C/3\C(=O)NC(=O)S3
Summary of the method: as §1

Measured: log2 fold change

DUSP9 (UniProt Q99956)
inactive: erlotinib 0.089 | [1] 0.01 | [2] -0.218 | [3] -0.045

DONSON (UniProt Q9NYP3)
inactive: [4] -0.108 | [1] -0.166 | [5] -0.047 | [3] 0.118 | [6] -0.088 | [7] 0.05 | [8] 0.004

DNAJC25 (UniProt Q9H1X3)
inactive: erlotinib 0.071 | [2] -0.016 | [9] 0.081 | [7] -0.077 | [8] 0.044

DNAJB9 (UniProt Q9UBS3)
inactive: erlotinib 0.243 | [2] 0.146

E4F1 (UniProt Q66K89)
inactive: [4] -0.168 | [1] -0.249 | [5] -0.088 | [9] 0.137 | [3] 0.097 | [6] -0.002 | [7] 0.027 | [8] -0.021

DYNC1I1 (UniProt O14576)
inactive: [1] -0.112 | [3] 0.141

DROSHA (UniProt Q9NRR4)
inactive: [4] -0.061 | [1] 0.095 | [5] 0.062 | [6] -0.255 | [7] 0.107 | [8] -0.383

2 entries picked at random from the list so far:
DNAJC25 (UniProt Q9H1X3)
inactive: erlotinib 0.071 | [2] -0.016 | [9] 0.081 | [7] -0.077 | [8] 0.044

E4F1 (UniProt Q66K89)
inactive: [4] -0.168 | [1] -0.249 | [5] -0.088 | [9] 0.137 | [3] 0.097 | [6] -0.002 | [7] 0.027 | [8] -0.021

Next records follow:

DNAL1 (UniProt Q4LDG9)
inactive: [4] -0.034 | [1] 0.053 | [5] -0.07 | [3] -0.113 | [6] 0.091
active: [9] -0.654

DRAM2 (UniProt Q6UX65)
inactive: [4] -0.012 | [1] -0.105 | [5] 0.124 | [6] 0.047 | [7] 0.015 | [8] 0.048

DVL2 (UniProt O14641)
inactive: [4] -0.062 | [1] -0.26 | [5] 0.259 | [6] -0.182

DYNC2LI1 isoform 2 (UniProt Q8TCX1)
inactive: erlotinib 0.219 | [1] -0.107 | [2] -0.284 | [3] -0.054
